Experimental data: the supplement of paper PMC8256030
“And” between values parts separate entries of the source, which are not always exact repeats. Equal values may be shown once. Where a name gives a salt, the structure may show the parent alone. ± gives the standard deviation of the averaged measurements. Some of the results follow. Repeats in this data set agree poorly, so a single value says little.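 HEK293T cells were given each compound shortly before transfection with a reporter in which red mCherry is followed by the SARS-CoV-2 frameshift element and then GFP in the −1 frame, so GFP appears only after frameshifting.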

Tested on: HEK293T
Test: percent viability (nuclei count) relative to control; higher = more viable cells
Conditions: 10 µM; 24 h

SMILES | percent viability
O=c1oc2c(O)c(O)cc3c(=O)oc4c(O)c(O)cc1c4c23 [ellagic acid] | 40.1%
Cn1c2ncnc-2c(O)n(C)c1=O [Oxtriphylline] | 239%
O=C(O)c1cc(=O)c2ccccc2o1 [chromocarb] | 41.5%
COC(=O)[C@H]1[C@H]2C[C@@H]3c4[nH]c5cc(OC)ccc5c4CCN3C[C@H]2C[C@@H](OC(=O)c2cc(OC)c(OC)c(OC)c2)[C@@H]1OC | 210%
COc1ccc2c(c1OC)C(=O)O[C@@H]2[C@H]1c2c(cc3c(c2OC)OCO3)CCN1C | 169%
CSc1ccc(OCc2ncc([N+](=O)[O-])n2C)cc1 [fexinidazole] | 195%
CC(=O)OCC(=O)[C@@]1(O)CC[C@H]2[C@@H]3CCC4=CC(=O)C=C[C@]4(C)[C@@]3(Cl)[C@@H](Cl)C[C@@]21C | 370%
CCCCCCCCCCCCCCCC(=O)O[C@@H]1[C@@H](O)[C@@H](O)[C@@H]([C@H](NC(=O)[C@@H]2C[C@@H](CCC)CN2C)[C@H](C)Cl)O[C@@H]1SC [Clindamycin palmitate·HCl] | 88.8%
CC(C)CCCC(C)NC(C)C (centres undefined) [iproheptine] | 86.7%
OCCN1CCN(CC/C=C2/c3ccccc3Sc3ccc(Cl)cc32)CC1 [Zuclopenthixol] | 448%
CN1CCN(C2=Nc3ccccc3Cc3ccccc32)CC1 [perlapine] | 77.7%
CC(O)CC(C)(C)O (centres undefined) | 160%
CC(C)(CO)CCCCCCC(C)(C)CO [gemcadiol] | 59.7%
CCOc1ccccc1OCCN[C@H](C)Cc1ccc(OC)c(S(N)(=O)=O)c1 [tamsulosin] | 187% and 165%
COc1ccc(C(=O)NCc2ccc(OCCN(C)C)cc2)cc1OC [itopride] | 224% and 251%
CN1C(CCl)Nc2cc(Cl)c(S(N)(=O)=O)cc2S1(=O)=O (centres undefined) [methyclothiazide] | 152%
O=c1[nH]c(=O)n([C@H]2C[C@H](O)[C@@H](CO)O2)cc1F [floxuridine] | 238% and 183%
CCCCOc1cc(C(=O)OCCN(CC)CC)ccc1N | 176%
Nc1cc(C(Cl)=C(Cl)Cl)c(S(N)(=O)=O)cc1S(N)(=O)=O [clorsulon] | 200%
O=C1O[C@H]([C@@H](O)CO)C(O)=C1O [ascorbic acid] | 146%

SMILES | percent viability
C[C@]12CCC(=O)C=C1CC[C@@H]1[C@@H]2C(=O)C[C@@]2(C)[C@H]1CC[C@]2(O)C(=O)CO [cortisone] | 81.3%
NS(=O)(=O)c1cc(Cl)c(Cl)c(S(N)(=O)=O)c1 [diclofenamide] | 248%
O=C1O[C@H]([C@@H](O)CO)C(O)=C1O | 236%
CN(C)CCCC1(c2ccc(F)cc2)OCc2cc(C#N)ccc21 (centres undefined) [citalopram] | 286% and 188%
CC[C@@]12C=C(C(=O)OC)n3c4c(c5ccccc53)CCN(CCC1)[C@H]42 [apovincamine] | 133 ± 26%
CCCCCCCCOc1ccc(C(=O)c2ccccc2)c(O)c1 [octabenzone] | 202%
NC[C@H]1CC[C@H](C(=O)O)CC1 | 386%
CC1(C)Oc2ccc(C#N)cc2[C@H](N2CCCC2=O)[C@H]1O [cromakalim] | 143%
CN[C@@H]1[C@H](O[C@H]2[C@H](O[C@H]3[C@H](O)[C@@H](O)[C@H](N=C(N)N)[C@@H](O)[C@@H]3N=C(N)N)O[C@@H](C)[C@]2(O)C=O)O[C@@H](CO)[C@H](O)[C@H]1O [Streptomycin] | 211% and 175%
Cc1[nH]cnc1-c1ccc(Cl)cc1 [lofemizole] | 93.6%
COc1cc(O)c(C(=O)c2ccccc2)cc1S(=O)(=O)O | 206%
O=C(Nc1ccc(Cl)cc1)Nc1ccc(Cl)c(Cl)c1 [triclocarban] | 51.9%
CSCC[C@H](NC(=O)[C@H](Cc1c[nH]c2ccccc12)NC(=O)CNC(=O)[C@@H](NC(=O)[C@H](Cc1ccc(OS(=O)(=O)O)cc1)NC(=O)[C@H](CC(=O)O)NC(=O)[C@H](CCC(N)=O)NC(=O)[C@@H]1CCC(=O)N1)[C@@H](C)O)C(=O)N[C@@H](CC(=O)O)C(=O)N[C@@H](Cc1ccccc1)C(N)=O [ceruletide] | 202%
CN(C)[C@@H]1C(=O)C(C(=O)NCN2CCCC2)=C(O)[C@@]2(O)C(=O)C3=C(O)c4c(O)cccc4[C@@](C)(O)[C@H]3C[C@@H]12 | 169%
NC(=O)C(c1ccccc1)(c1ccccc1)[C@@H]1CCN(CCc2ccc3c(c2)CCO3)C1 [Enablex] | 342%
CCCc1nc(C(C)(C)O)c(C(=O)OCc2oc(=O)oc2C)n1Cc1ccc(-c2ccccc2-c2nnn[nH]2)cc1 [olmesartan medoxomil] | 252% and 290% and 280%
CN(C)CCc1c[nH]c2ccc(Cn3cncn3)cc12 | 404%
CC(=O)OCC1OC([S-])C(OC(C)=O)C(OC(C)=O)C1OC(C)=O.CC[PH+](CC)CC.[Au+] (centres undefined) [Auranofin] | 32%
C[C@@H](C(=O)O)c1ccc(-c2ccccc2)c(F)c1 [tarenflurbil] | 113%

Part of the list above, set out differently:
CN(C)CCCC1(c2ccc(F)cc2)OCc2cc(C#N)ccc21 (centres undefined) [citalopram]
  percent viability: 286% and 188%
Cc1[nH]cnc1-c1ccc(Cl)cc1 [lofemizole]
  percent viability: 93.6%
